Results deposited as PubChem BioAssay AID1259308 (NCATS, 2017).

- Test: 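Genes whose loss raises luciferase production in HEK293 cells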 (primary screen)
- Cells: human HEK293 embryonic kidney cells stably expressing firefly luciferase (HEK-CMV-Luc2-Hygro)
- Reagent: single siRNA against human genes, 0.8 pmol siRNA per well
- Duration: 72 h
- Measurement: 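Luciferase light (ONE-Glo) measured on one replicate plate set and viability (CellTiter-Glo) on the other, scaled to a negative control siRNA, with robust z-scores and luciferase per cell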
- Reading the numbers: total luciferase, z-score and total luciferase, % of control: higher = more reporter protein produced
- Rule for the call: 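An siRNA counts as active if its total luciferase robust z-score exceeds 3; genes with two or more such siRNAs out of three were retested with fresh siRNAs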
- Meaning of the calls: active = raised luciferase; inactive = no rise
This is a random part of about 59,000 reagents. About 1,510 of all reagents (2.6%) count as active. 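Calls use total luciferase alone and ignore viability, so some active siRNAs may act by altering cell number.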 Reagents against one gene are numbered here. Not all columns of the deposit are shown.

gene	siRNA no.	total luciferase, z-score	total luciferase, % of control	Outcome
PTPRO	1	-1.69	48.3	inactive
PTPRO	2	-0.000662	81.9	inactive
PTPRO	3	0.0938	83.8	inactive
AQP4	1	0.179	85.4	inactive
AQP4	2	0.249	86.8	inactive
AQP4	3	-1.13	59.4	inactive
FUT6	1	1.91	120	inactive
FUT6	2	-0.647	69	inactive
FUT6	3	-1.19	58.1	inactive
CCNYL2	1	-0.594	70.1	inactive
CCNYL2	2	0.223	86.3	inactive
CCNYL2	3	1.51	112	inactive
CALCR	1	-0.784	66.3	inactive
CALCR	2	-1.74	47.2	inactive
CALCR	3	-0.0523	80.8	inactive
CLPP	1	2.13	124	inactive
CLPP	2	0.68	95.4	inactive
CLPP	3	4.37	169	active
SNX14	1	0.0532	82.9	inactive
SNX14	2	-0.0434	81	inactive
SNX14	3	-0.178	78.4	inactive
LRRC3C	1	2.32	128	inactive
LRRC3C	2	3.85	159	active
LRRC3C	3	0.281	87.5	inactive
RAB39A	1	0.716	96.1	inactive
RAB39A	2	-0.938	63.2	inactive
RAB39A	3	-0.671	68.5	inactive
JAGN1	1	3.8	158	active
JAGN1	2	0.758	97	inactive
JAGN1	3	0.833	98.4	inactive
CDC20	1	0.451	90.9	inactive
CDC20	2	-2.74	27.3	inactive
CDC20	3	0.159	85	inactive
ZNF184	1	-0.28	76.3	inactive
ZNF184	2	1.34	109	inactive
ZNF184	3	-0.64	69.1	inactive
NID2	1	0.879	99.4	inactive
NID2	2	5.4	189	active
NID2	3	0.335	88.5	inactive
